Binding data for 2 substances are collected here from PMC3034716.

Sequences of proteins named here, by UniProt entry; tags and fusion partners are left off. A change or cut given only in a name is not applied to a line headed by its entry. Residues count along the entry.
UniProt P07237, residues 18-508: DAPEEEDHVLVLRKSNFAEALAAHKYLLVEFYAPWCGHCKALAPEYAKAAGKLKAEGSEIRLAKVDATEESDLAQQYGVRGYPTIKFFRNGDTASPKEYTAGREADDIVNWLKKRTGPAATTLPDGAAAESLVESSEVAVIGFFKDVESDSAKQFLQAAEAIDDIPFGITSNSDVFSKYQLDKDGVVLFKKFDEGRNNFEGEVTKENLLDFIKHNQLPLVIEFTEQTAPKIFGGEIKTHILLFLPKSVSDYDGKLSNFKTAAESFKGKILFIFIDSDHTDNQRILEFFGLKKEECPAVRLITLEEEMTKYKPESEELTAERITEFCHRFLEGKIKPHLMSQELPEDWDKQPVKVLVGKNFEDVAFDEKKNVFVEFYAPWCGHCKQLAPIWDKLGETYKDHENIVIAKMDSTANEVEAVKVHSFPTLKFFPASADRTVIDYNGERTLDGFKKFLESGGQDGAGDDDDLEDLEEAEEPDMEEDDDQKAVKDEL
UniProt P14625, residues 22-803: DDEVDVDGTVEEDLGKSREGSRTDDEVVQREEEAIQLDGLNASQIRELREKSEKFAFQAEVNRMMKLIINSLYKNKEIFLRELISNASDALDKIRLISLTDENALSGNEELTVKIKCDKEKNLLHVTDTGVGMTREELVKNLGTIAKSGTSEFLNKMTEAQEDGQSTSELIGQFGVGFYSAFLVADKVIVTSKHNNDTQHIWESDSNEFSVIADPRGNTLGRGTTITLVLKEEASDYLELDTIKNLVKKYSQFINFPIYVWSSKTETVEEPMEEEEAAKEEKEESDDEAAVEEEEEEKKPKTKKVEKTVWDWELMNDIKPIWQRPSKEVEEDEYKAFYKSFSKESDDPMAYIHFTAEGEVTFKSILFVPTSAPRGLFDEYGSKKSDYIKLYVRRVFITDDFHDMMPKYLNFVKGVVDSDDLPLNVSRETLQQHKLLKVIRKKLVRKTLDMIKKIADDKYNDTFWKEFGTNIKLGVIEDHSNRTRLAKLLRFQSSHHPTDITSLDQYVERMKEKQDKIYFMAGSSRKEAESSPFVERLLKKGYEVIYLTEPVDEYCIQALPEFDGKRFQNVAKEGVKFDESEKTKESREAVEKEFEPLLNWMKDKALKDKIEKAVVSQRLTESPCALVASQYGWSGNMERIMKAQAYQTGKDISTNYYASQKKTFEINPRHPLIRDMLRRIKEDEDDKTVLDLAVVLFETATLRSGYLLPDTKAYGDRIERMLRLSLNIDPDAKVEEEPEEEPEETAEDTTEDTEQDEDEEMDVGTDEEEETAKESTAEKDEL
UniProt P10809, residues 27-573: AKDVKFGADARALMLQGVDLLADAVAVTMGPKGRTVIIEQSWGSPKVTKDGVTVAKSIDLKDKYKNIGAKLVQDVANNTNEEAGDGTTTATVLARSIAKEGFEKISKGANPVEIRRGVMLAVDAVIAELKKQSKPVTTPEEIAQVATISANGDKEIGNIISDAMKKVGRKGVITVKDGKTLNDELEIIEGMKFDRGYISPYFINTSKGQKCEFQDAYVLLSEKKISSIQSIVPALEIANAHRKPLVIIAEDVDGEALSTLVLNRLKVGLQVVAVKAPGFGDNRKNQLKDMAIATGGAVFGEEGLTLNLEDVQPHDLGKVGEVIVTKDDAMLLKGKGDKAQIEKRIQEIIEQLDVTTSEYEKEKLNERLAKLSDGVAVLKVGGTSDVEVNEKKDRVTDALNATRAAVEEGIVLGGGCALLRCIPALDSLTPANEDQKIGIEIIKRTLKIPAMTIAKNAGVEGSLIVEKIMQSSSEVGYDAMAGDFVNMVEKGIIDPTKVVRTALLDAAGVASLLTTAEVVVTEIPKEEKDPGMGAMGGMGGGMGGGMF
UniProt P19483: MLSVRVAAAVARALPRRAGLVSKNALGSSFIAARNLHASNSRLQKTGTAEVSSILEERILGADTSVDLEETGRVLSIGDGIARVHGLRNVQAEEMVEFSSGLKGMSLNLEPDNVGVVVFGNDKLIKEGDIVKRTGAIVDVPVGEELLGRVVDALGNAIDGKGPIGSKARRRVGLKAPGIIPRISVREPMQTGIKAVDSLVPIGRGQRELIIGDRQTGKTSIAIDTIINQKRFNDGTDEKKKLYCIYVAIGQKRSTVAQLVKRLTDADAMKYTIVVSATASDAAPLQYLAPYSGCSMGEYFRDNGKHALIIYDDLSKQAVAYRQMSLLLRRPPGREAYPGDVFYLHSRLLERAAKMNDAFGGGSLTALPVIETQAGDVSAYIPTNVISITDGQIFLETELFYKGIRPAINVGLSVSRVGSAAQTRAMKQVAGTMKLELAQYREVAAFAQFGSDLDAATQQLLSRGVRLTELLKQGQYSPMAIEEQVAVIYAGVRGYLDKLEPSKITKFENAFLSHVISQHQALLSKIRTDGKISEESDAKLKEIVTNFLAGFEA

No constants are given. Whether binding was seen depends on the method and setting. Some results given as binding are weak or reduced against the parent protein; the word gives no strength.

For assay [1], the target named is prolyl-4-hydroxylase β-subunit (HUVEC membrane-enriched proteins) (human (endogenous in HUVEC)) (UniProt P07237). The experiment in a line: far-Western, overlay or dot blot; HUVEC membrane-enriched proteins resolved on bidimensional gels, blotted onto PVDF, incubated with 2 µg/ml recombinant hsp60, probed with anti-hsp60 mAb (clone LK-1); additional spots cut from a Coomassie-stained gel and identified by MALDI mass spectrometry; only the binder purified.

Assay [2] deals with gp96 (HUVEC membrane-enriched proteins) (human (endogenous in HUVEC)) (UniProt P14625). The description is as above.
In another assay the target is recombinant hsp60 (UniProt P10809). The experiment in a line: SPR; Biacore X; recombinant hsp60 immobilised by amine coupling on a carboxymethyldextran chip (~10ng/mm^2); purified bovine ATP synthase injected at 10 µl/min in increasing amounts; 10mM HEPES, 150mM NaCl, 2mM EDTA; blank flow cell subtracted; both purified. (SPR reads the build-up and loss of mass on a sensor chip optically.)

In the case of “recombinant hsp60 (from UniProt P10809 27-573)”, the binding entry in assay [1] and in assay [2] was “binds” throughout.
Regarding “purified bovine ATP synthase complex (from UniProt P19483 44-553; P00829 47-528; P05631 26-298)”, the binding result with recombinant hsp60 is “binds”.
